54 sequences from patent publication US20180073026 can be followed below.

In data set [1] the test system is RNA polymerase holoenzyme (core + sigma70) (Escherichia coli). Nature of the data set: activity in cells. The following applies: protein in cells, protein details: endogenous, tested in E. coli reporter strains, dose not given here.
The subject of the next data set is RNA polymerase II. The data set is described as follows: SELEX. Conditions: selected with yeast/human RNAP II; purified native protein.
Where [2] appears, read: inactive variant, binding itself not measured, variant of RAP #5713.
The mark [3] stands for this setting: active variant, variant of RAP #5713.

For at least one entry, the source does not settle the construct or the ends of the probe. For part of these data: A negative result means that nothing was seen under these conditions.

With “AACCCUUCUGACGAUCCCAUUGCUGCAUCACAAGCCGUAGUUC [RAP #3930]”, the “functional effect of the aptamer” value in data set [1] (inhibiting) is recorded as “active”.

As to “AACUUCAAAAAAAAUUACAAAAAGUGCUUUCUGAACUGAACAAAAAAGAGUAAAGUUAGUCGCGUAAAGUACAUCU [yh3]”, the selection result in the data set on RNA polymerase II was “selected”.

For “AAGCACUAAAGGCCCAUUCUUGCUCUAUGUAUCUGUGACUUAAGAUCUGCCAC [yh30]”, the selection result in the data set on RNA polymerase II is listed as “selected”.

On to AAGCACUACCCACCUGACAAUGUCUUCAUCCC [yh14], for which the selection result in the data set with RNA polymerase II is “selected”.

In the case of “AAUGCGUGAUUUCUUGUGCUUUCAGUCCCAGUUUUG [RAP #3439]”, the “functional effect of the aptamer” value in data set [1] (enhancing) was “active”.

Take “ACAUGAUCACCGCGCUCUAUUCCGCUUCUGCUGAUUCCAUUCCUAUUCUGUG [RAP #1800]”: the “functional effect of the aptamer” value in data set [1] (inhibiting) is “active”.

As to “ACCAUCAACCACUGACCGACGAUUAGCUUACGCAGUUGCGCUCGCCCUG [RAP #1760]”, the “functional effect of the aptamer” value in data set [1] (inhibiting) is given as “active”.

For “ACCUGGUUGACGAAGCUAAACGUCUGCUGACCACCUGCAACAUCCCGGUUCCGUC [RAP #10070]”, the “functional effect of the aptamer” value in data set [1] (inhibiting) is on record as “active”.

For the sequence ACGGCCACCAGACUCAUUCCUGCC [yh31], in the data set with RNA polymerase II, the selection result is recorded as “selected”.

“AGCAGGUACAUUGUCCACAGACACUGCCAGAGCCCACUGUGUCC [RAP #10966]”: the “functional effect of the aptamer” value in data set [1] (enhancing) is “active”.

For “AGCAUACAAAAUAUACCUUUCUCAAACAAGAAACAUCCC [yh15]”, the selection result in the data set with RNA polymerase II is “selected”.

Regarding “AGUACACCGGAUCCCAGAACCACCAGCCGCC [RAP #14542]”, in data set [1] (enhancing), the “functional effect of the aptamer” value is given as “active”.

In the case of AUAUCAGCCAUGUACAUCCCUGUCCCCC [yh9], in the data set on RNA polymerase II, the selection result is on record as “selected”.

With “AUCAUCAGGCGAUUGAAGUGGGUAUGGUGAACUAUCUGUGG [RAP #5151]”, in data set [1] (enhancing), the “functional effect of the aptamer” value is reported as “active”.

Consider “AUUGAGUCGAAAUCGGUAUUCACCGGAUUGUACAGAUUGAGCCAUC [RAP #602]”, for which the “functional effect of the aptamer” value in data set [1] (enhancing) is listed as “active”.

Regarding “CAAGCCACCACAUCGCAAAUGUGCCAGGAGCGACCUGUUCUUGUUCAAUUUCU [RAP #15003]”, the “functional effect of the aptamer” value in data set [1] (inhibiting) is given as “active”.

Take “CAAUGUCCAUACUUAAUGUCGAGAGGAUCUCCACCAUCUCAAC [RAP #9505]”: in data set [1] (inhibiting), the “functional effect of the aptamer” value is on record as “active”.

Consider CACAAAUCACACAGCCCAUCACCC [RAP #14060], for which the “functional effect of the aptamer” value in data set [1] (enhancing) is reported as “active”.

“CAGCAAUCAACCAAUCCCGAAAGCAUACAGACUGGUG [RAP #15488]”: in data set [1] (enhancing, at least 20% increase criterion), the “functional effect of the aptamer” value is recorded as “active”.

Take “CAGCAUCACAUGACCGAUCGCCAUCAACAACGCCC [RAP #2464]”: the “functional effect of the aptamer” value in data set [1] (enhancing) is “active”.

On to CAGCAUGCAGCAGAUCCAGCGUGU [RAP #7866], for which, in data set [1] (enhancing), the “functional effect of the aptamer” value is recorded as “active”.

In the case of “CAGCCAGGUCACAAUACCCAGCAUCAACAUGUGGCAU [RAP #11884]”, the “functional effect of the aptamer” value in data set [1] (enhancing) is on record as “active”.

As for “CAGCGCCAUAAAGCCGAUGAUCAUCCACUCAACGUUGACGUAGUUGCAGAACACCAUCACC [RAP #9533]”, in data set [1] (inhibiting), the “functional effect of the aptamer” value is listed as “active”.

In the case of “CAGCGCCAUGAGCGUGAUCCACAUACCAAUAAAUUCGUCCCAGACAAUGCUGCCAUGAUCG [RAP #1436]”, the “functional effect of the aptamer” value in data set [1] (inhibiting) is listed as “active”.

Take “CAGCUAACCCGAUGAUCACCGACUGACC [RAP #1220]”: the “functional effect of the aptamer” value in data set [1] (enhancing) is recorded as “active”.

For “CCAAGGUACCCAAGAAGCGCCCGCAGGAUCAAAAACUGCCAGAUAUUUU [RAP #3828]”, in data set [1] (enhancing), the “functional effect of the aptamer” value was “active”.

In the case of “CCAGAGUUACCAAUACAGGUGGUACAACCGUAUCCCACAAGGUUAA [RAP #4555]”, in data set [1] (enhancing), the “functional effect of the aptamer” value is recorded as “active”.

On to “CCAGUCGGCAAACAUUCCCAUCCAGACACCAACCA [RAP #6819]”, for which, in data set [1] (inhibiting), the “functional effect of the aptamer” value is listed as “active”.

Consider “CGACUAUGAUCAGAAUCGGGCCAUGUUAAACACCCUGAAUGUUGGUC [RAP #13404]”, for which the “functional effect of the aptamer” value in data set [1] (enhancing) is “active”.

“CGGGCAUAUUGCGUGAUUUGUGCCAACCGAUGAUUACUUUCCCCUGC [RAP #4599]”: in data set [1] (inhibiting), the “functional effect of the aptamer” value is recorded as “active”.

As to “CUAAACCAGGGUAGUCCGGCAGAGUAACGGUGACAUCACGAUAGCACCAU [RAP #15418]”, the “functional effect of the aptamer” value in data set [1] (enhancing) was “active”.

For “CUGUUCCAUGUUAAGCAGAUCCCCUGUCGAACCCGUUCAAAGCACUGCACC [RAP #803]”, the “functional effect of the aptamer” value in data set [1] (inhibiting) is given as “active”.

In the case of “CUUCGACAUCCGCUUCGUGGUGGAAAUACCCAUCCAGCAGGCCGACAAGGUUGGUUUUACGUACUGGAUCUUCUUUGC [RAP #10822]”, in data set [1] (inhibiting), the “functional effect of the aptamer” value is given as “active”.

With “CUUGGGUUUGUUGAUUACGGAUAUUGAGCUUGUCAU [RAP #14079]”, the “functional effect of the aptamer” value in data set [1] (enhancing) was “active”.

Take “GACAACAACAGAACAGUUGUGCAGCACUA [5713_mut_stem3]”: in data set [1] (setting [2]), the “functional effect of the aptamer” value was “not active”.

Take “GACAACACCCGAACAGUCCCGCAGCACUA [5713_mut_noStruct]”: the “functional effect of the aptamer” value in data set [1] (setting [2]) is “not active”.

In the case of GACAACAUGAGAACAGUUCAGCA [5713_mut_0-6], in data set [1] (active variant, 3' truncated by 6 nt, variant of RAP #5713), the “functional effect of the aptamer” value is given as “active”.

For the sequence “GACAACAUGAGAACAGUUCAGCAGCACUA [RAP #5713]”, the functional effect of the aptamer in data set [1] (GFP transcript vs no RAP, 8-14 fold read-through with rrnB/T7t terminators) was over 2 fold.

For “GACAACAUGAGGGCGGUUCAGCAGCACUA [5713_mut_loop2]”, the “functional effect of the aptamer” value in data set [1] (setting [3]) is given as “active”.

Consider “GACGGCAUGAGGGCAGGGCAGCAGCACUA [5713_mut_3gg]”, for which the “functional effect of the aptamer” value in data set [1] (setting [3]) was “active”.

“GACGGCAUGAGGGCAGUUCAGCAGCACUA [5713_mut_2gg]”: the “functional effect of the aptamer” value in data set [1] (setting [3]) was “active”.

On to “GAGCACUAACAGUAAAGGAGUCAAUGAUGUCAGGAGAACACGUUUCAUC [RAP #9885]”, for which the “functional effect of the aptamer” value in data set [1] (enhancing) is reported as “active”.

Regarding “GCGUUUCAAAUGCGCAUCAACCUGCCACACUCCCCCACA [RAP #1086]”, the “functional effect of the aptamer” value in data set [1] (inhibiting, Rho-dependent, abolished by bicyclomycin) was “active”.

As for “GCUAAGACGCAGUGCAAAAGUGGUAUCGGAAUGAUUCGUGUAGCCUUGCA [RAP #607]”, the “functional effect of the aptamer” value in data set [1] (enhancing) is on record as “active”.

“GGAAUCUGUUGGCGUGGAAUAAUCGGUGAGACGCAUCAUGUUGU [RAP #3600]”: in data set [1] (enhancing), the “functional effect of the aptamer” value is “active”.

“GUUGCAGUGCGGAUGCUGUGUGAUGGCGCUAUACAAAAAAGUUGUCGAGUGA [RAP #4962]”: the “functional effect of the aptamer” value in data set [1] (enhancing) is “active”.

In the case of “UACAUCAGCCCUGCAAUCAGCAAUCCCGGCAGCAACACUCCCCAGCCA [RAP #15592]”, in data set [1] (inhibiting), the “functional effect of the aptamer” value is given as “active”.

For “UACCACCAAACCAACGUACAGAGCGUACAAGCCAACAUUGCCC [RAP #10243]”, the “functional effect of the aptamer” value in data set [1] (inhibiting) was “active”.

Turning to “UCAUGACGCAGCUGAUGAUCCACAUUCUUUACCCACACAAAUUCAUGUCCUUU [RAP #5039]”, the “functional effect of the aptamer” value in data set [1] (inhibiting) is on record as “active”.

On to “UCCAACCCGUAUUCCUCGAAGUAGUGGAUGAAAGCUAUCGUCACAAU [RAP #1510]”, for which, in data set [1] (inhibiting), the “functional effect of the aptamer” value is listed as “active”.

Consider “UGAUGAUCAGCACAUCUUCCAGAGCCAUGUCUUUCA [RAP #11531]”, for which the “functional effect of the aptamer” value in data set [1] (enhancing) is recorded as “active”.

As to “UGCCAGAUCAGAACGCAGCAUUUCCUCAACAUCUUCACCAAUGUUCA [RAP #11599]”, the “functional effect of the aptamer” value in data set [1] (inhibiting) is on record as “active”.

As to “UUAAACGAAUGUCUGCAUAUAUUGUGGCGUAUUCGCUUUGCCCUGCAUCUG [RAP #683]”, the “functional effect of the aptamer” value in data set [1] (inhibiting) is given as “active”.

For “UUCGUUUUCCCAACCUGAAUCUCGACAACUCCGUCCACAUCAC [RAP #9559]”, the “functional effect of the aptamer” value in data set [1] (inhibiting) is “active”.
